The values below come from the supplement of paper PMC10849652.

Amino acid sequences for entries named in this document (tags omitted). A change or cut given only in a name is not applied to a line headed by its entry.
UniProt P50552: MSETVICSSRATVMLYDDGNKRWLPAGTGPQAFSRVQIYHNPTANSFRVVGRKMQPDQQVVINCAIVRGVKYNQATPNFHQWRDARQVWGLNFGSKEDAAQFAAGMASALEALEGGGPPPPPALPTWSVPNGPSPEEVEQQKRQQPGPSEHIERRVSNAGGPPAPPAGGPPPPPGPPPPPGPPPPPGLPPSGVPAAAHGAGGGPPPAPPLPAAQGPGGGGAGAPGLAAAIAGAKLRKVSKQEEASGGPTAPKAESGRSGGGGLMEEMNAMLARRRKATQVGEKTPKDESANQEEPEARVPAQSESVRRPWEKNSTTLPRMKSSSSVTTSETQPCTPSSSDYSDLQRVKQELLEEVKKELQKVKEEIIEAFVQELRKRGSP
UniProt Q9HA47: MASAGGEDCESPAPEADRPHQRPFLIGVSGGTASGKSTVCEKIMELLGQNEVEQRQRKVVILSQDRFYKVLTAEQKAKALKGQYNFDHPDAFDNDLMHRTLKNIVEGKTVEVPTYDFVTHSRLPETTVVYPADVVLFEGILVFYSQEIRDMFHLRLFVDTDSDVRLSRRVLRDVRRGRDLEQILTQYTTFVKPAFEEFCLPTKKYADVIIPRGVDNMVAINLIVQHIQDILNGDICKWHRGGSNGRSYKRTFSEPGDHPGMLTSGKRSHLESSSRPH
UniProt Q15386: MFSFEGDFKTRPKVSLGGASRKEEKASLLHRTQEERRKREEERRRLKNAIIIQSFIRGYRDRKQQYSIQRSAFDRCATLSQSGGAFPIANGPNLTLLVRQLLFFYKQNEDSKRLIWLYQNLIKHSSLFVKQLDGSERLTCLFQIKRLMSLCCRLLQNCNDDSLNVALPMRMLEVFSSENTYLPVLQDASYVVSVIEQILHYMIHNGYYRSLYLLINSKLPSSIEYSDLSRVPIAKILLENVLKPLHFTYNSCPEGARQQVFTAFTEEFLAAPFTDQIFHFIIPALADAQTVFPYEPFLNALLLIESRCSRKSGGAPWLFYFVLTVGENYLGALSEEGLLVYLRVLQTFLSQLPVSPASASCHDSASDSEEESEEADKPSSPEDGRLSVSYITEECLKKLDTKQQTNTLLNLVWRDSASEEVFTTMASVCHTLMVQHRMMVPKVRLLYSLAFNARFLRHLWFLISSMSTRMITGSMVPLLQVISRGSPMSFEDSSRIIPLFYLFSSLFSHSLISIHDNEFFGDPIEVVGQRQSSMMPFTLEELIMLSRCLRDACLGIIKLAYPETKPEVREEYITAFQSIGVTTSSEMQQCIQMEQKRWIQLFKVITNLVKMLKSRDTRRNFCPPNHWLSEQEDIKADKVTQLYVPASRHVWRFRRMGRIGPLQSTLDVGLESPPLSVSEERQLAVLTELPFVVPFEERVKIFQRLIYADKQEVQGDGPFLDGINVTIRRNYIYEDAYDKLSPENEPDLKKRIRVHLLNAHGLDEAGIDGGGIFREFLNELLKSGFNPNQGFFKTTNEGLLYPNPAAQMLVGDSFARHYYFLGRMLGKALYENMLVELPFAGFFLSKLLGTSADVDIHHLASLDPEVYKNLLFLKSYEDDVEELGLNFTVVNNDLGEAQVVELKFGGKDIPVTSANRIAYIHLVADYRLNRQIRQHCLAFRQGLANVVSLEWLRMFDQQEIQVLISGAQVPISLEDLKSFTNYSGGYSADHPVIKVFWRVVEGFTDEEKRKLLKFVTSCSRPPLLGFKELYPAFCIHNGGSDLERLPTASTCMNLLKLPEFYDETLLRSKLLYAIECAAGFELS
UniProt Q9UHD9, whole entry, looked up: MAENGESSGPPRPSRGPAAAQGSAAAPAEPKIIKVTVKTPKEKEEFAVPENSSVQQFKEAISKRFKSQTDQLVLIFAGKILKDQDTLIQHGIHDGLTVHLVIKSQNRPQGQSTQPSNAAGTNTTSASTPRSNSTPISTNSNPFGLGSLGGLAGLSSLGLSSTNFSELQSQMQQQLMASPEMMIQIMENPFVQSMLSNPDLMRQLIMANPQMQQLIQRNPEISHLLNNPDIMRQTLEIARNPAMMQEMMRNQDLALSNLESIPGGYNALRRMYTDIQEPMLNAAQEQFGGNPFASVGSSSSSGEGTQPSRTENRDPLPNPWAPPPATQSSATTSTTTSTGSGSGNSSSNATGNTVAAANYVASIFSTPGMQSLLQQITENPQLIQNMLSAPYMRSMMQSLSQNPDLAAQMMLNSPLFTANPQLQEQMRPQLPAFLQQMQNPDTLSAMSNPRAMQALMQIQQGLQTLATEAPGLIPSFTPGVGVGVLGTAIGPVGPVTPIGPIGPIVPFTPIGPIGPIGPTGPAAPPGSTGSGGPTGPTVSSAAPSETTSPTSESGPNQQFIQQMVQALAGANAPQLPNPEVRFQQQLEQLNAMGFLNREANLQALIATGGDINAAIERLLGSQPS
UniProt Q6BDS2: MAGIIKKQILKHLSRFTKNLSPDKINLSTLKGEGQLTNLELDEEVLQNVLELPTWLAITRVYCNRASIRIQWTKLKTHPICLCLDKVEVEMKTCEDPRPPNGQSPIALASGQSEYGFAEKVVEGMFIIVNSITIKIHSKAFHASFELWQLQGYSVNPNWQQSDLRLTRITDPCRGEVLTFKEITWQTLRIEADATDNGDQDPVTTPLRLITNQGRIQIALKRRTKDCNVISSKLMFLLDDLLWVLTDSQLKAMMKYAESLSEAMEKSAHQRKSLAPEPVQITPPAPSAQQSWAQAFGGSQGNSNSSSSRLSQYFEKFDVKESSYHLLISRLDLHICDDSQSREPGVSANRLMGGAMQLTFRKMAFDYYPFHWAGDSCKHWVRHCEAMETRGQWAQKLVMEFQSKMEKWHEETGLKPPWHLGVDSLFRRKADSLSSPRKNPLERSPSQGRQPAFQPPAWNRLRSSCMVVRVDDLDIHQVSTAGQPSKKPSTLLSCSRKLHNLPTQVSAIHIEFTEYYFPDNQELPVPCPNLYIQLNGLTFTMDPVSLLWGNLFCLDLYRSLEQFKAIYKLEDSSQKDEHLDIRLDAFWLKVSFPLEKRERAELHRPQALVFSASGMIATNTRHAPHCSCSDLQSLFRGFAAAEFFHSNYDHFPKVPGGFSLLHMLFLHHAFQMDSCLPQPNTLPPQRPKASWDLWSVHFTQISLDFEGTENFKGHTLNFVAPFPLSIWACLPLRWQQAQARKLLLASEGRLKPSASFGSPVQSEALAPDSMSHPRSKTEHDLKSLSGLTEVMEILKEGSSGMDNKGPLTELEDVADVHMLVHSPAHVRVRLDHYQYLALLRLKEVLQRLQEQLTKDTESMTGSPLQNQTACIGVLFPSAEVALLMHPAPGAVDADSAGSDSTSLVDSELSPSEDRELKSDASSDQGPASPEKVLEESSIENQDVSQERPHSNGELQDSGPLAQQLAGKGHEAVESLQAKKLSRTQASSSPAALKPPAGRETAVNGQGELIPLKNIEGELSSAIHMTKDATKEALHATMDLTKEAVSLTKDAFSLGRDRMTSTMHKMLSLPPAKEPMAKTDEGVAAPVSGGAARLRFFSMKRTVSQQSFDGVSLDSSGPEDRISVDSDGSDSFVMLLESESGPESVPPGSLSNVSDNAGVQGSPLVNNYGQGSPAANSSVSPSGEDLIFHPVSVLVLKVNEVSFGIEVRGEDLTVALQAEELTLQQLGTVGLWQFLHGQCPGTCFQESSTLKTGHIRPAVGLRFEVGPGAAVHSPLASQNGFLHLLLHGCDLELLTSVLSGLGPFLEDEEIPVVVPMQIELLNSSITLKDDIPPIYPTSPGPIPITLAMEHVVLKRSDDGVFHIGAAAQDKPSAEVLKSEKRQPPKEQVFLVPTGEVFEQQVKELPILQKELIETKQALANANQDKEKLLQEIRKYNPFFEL
UniProt Q9NQZ2: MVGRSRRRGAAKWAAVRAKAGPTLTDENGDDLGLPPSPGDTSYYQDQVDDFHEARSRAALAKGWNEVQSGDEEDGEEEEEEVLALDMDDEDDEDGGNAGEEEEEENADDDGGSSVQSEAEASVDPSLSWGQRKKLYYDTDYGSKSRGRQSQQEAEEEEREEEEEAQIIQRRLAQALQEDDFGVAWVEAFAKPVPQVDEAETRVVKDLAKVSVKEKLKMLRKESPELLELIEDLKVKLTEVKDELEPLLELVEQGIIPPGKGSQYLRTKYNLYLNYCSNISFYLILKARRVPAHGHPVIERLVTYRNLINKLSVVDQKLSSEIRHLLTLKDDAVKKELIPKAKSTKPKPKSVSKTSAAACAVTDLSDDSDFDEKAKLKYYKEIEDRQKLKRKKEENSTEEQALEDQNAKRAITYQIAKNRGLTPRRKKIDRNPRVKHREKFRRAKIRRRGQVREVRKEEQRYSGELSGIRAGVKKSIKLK
UniProt Q70CQ3: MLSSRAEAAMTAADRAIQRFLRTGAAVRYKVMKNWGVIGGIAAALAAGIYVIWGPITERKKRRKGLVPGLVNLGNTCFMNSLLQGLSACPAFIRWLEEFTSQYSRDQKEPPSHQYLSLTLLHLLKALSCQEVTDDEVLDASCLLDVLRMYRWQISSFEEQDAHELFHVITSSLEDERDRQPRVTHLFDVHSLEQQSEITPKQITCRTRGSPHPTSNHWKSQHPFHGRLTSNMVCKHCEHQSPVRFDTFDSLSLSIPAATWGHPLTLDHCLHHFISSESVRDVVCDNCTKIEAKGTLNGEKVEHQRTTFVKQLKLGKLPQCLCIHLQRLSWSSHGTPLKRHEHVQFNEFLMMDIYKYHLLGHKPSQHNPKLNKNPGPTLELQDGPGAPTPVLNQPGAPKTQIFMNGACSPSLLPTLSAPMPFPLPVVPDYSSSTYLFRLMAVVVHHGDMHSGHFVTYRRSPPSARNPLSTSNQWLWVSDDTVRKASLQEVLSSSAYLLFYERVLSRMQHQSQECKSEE
UniProt P61960, whole entry, looked up: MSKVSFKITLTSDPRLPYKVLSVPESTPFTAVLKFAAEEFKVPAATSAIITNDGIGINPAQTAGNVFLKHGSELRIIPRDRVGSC
UniProt Q9NYU2: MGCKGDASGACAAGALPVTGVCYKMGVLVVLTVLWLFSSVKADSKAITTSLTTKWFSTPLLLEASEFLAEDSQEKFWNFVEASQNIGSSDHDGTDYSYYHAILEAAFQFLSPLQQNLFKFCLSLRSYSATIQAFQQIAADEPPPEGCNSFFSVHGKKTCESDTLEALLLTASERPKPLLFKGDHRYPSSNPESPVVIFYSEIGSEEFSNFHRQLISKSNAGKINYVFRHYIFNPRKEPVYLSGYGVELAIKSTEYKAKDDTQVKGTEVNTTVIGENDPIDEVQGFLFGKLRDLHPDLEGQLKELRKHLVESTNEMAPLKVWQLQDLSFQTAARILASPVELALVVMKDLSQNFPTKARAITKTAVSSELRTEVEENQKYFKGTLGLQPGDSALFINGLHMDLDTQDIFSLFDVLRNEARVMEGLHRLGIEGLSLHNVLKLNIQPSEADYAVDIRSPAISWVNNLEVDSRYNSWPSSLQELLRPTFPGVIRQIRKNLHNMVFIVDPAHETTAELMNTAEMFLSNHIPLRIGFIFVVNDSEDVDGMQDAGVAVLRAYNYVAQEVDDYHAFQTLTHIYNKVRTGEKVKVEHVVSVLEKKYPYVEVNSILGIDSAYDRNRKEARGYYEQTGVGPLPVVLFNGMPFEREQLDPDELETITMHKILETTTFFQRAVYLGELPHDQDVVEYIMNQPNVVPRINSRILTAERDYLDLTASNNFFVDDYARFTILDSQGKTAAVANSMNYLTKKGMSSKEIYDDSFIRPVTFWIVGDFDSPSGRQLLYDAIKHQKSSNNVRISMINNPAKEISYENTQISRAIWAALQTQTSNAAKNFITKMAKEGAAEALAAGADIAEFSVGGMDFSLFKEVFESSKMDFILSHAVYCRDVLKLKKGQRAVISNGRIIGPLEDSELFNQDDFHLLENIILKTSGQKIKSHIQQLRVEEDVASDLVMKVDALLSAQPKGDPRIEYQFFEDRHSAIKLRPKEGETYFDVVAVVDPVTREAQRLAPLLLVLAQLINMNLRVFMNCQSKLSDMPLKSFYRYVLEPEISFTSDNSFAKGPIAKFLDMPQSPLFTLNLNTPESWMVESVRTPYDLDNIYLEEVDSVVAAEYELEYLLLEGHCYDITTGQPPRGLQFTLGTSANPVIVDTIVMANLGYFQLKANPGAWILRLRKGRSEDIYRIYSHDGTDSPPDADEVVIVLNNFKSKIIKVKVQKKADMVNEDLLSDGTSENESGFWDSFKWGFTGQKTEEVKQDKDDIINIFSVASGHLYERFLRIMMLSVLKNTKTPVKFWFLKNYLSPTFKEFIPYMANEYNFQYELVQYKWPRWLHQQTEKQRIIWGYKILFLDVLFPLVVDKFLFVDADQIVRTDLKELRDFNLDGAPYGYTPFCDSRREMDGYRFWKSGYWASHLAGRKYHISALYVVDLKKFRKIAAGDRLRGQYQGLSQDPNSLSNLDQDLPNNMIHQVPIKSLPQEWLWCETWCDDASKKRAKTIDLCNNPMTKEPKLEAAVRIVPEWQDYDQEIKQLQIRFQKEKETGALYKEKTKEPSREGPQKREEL
UniProt Q9BZL1: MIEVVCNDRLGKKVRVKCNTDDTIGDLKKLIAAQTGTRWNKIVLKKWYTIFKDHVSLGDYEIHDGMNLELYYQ
UniProt O14949: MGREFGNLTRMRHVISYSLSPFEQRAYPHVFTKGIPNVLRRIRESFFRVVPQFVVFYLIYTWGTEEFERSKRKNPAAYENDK

This is one part of the list.

Compound in the first assay: C1=CC2=C(C=CC(=C2)/C=C\3/C(=O)NC(=NCC4=CC=CS4)S3)N=C1
Kind of assay: log2 fold change, soluble protein after heating vs DMSO (PISA); higher = thermal stabilisation; K562 cells, 10 uM, 30 min; active = over 0.2 and 3.5 SD of the protein, either way, in both replicates (recomputed). Summed up:
(§1)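 K562 cells (2×10^6 cells/mL) were treated with 10 μM compound for 30 min, and aliquots were heated for 3 min over 48°C-58°C. Pooled aliquots were extracted in PBS with 0.5% NP-40 at 4°C, and the supernatant after 21,000xg for 90 min was measured by TMTpro 16plex LC-MS/MS with channel sums equalised. Reported thermal stability, relative to control samples and from duplicates, is a log2 fold change.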
Regarding VASP (UniProt P50552), the log2 fold change is inactive: 0.139.
On to UCK1 (UniProt Q9HA47), for which the log2 fold change is inactive: 0.005.
Same read-out and setting: the result for USE1 (UniProt Q9NZ43) reads inactive: 0.062; that for UBE3C (UniProt Q15386), inactive: 0.038; that for UBE4B isoform 4 (UniProt O95155), inactive: 0.
The same measure, in the same setting: the value for UBR7 (UniProt Q8N806) was inactive: 0.039; that for UBQLN2 (UniProt Q9UHD9) was inactive: -0.008; that for UHRF1BP1 (UniProt Q6BDS2) was inactive: 0.001.
UTP3 (UniProt Q9NQZ2): the log2 fold change was inactive: -0.068.
On the same count and under the same terms, the value for USP30 (UniProt Q70CQ3) was inactive: 0.253; that for UFM1 (UniProt P61960) was inactive: -0.015; that for USP7 (UniProt Q93009) was inactive: 0.159.
Consider UGGT1 (UniProt Q9NYU2), for which the log2 fold change is inactive: 0.018.
Same read-out and setting: the result for VAPA isoform 2 (UniProt Q9P0L0) reads inactive: -0.014.
With VARS2, A0A0G2JL52, the log2 fold change was inactive: 0.046.
On the same count and under the same terms, the value for USP24 (UniProt Q9UPU5) was inactive: 0.092.

Compound in another assay: C1=CC2=NC=CN=C2C=C1/C=C/3\C(=O)NC(=O)S3
Described as above. The procedure, abridged: as §1
As for VANGL1 (UniProt Q8TAA9), the log2 fold change is inactive: 0.031.
Same read-out and setting: the result for URGCP (UniProt Q8TCY9) reads inactive: -0.074; that for VAT1 (UniProt Q99536), inactive: -0.013.
On the same count and under the same terms, the result for UBL7 (UniProt Q96S82) reads inactive: 0.06.
Same read-out and setting: the result for USP10 isoform 2 (UniProt Q14694) reads inactive: 0.039; that for UBXN7 (UniProt O94888), inactive: 0.006; that for USP19 isoform 6 (UniProt O94966), inactive: 0.006.
With UBL5 (UniProt Q9BZL1), the log2 fold change was inactive: 0.04.
Regarding UQCRH (UniProt P07919), the log2 fold change was inactive: 0.05.
On to UROS (UniProt P10746), for which the log2 fold change was inactive: 0.01.
Regarding UBR5 (UniProt O95071), the log2 fold change was inactive: 0.051.
In the case of UBE3D (UniProt Q7Z6J8), the log2 fold change was inactive: -0.076.
Same read-out and setting: the value for UFL1 (UniProt O94874) was inactive: 0.021.
In the case of UTP14A (UniProt Q9BVJ6), the log2 fold change was inactive: -0.005.
Same read-out and setting: the result for UBQLN1 (UniProt Q9UMX0) reads inactive: 0.
With UQCRQ (UniProt O14949), the log2 fold change is inactive: 0.014.
Turning to UFD1 isoform 1 (UniProt Q92890), the log2 fold change is inactive: 0.015.
Turning to UNC45A (UniProt Q9H3U1), the log2 fold change is inactive: 0.
Turning to UQCR10 (UniProt Q9UDW1), the log2 fold change was inactive: 0.014.
Regarding UBXN1 (UniProt Q04323), the log2 fold change was inactive: 0.05.
On the same count and under the same terms, the value for VARS (UniProt P26640) was inactive: 0.005.
Turning to UQCRB (UniProt P14927), the log2 fold change is inactive: 0.034.
In the case of USP47 (UniProt Q96K76), the log2 fold change is inactive: -0.044.
VASP (UniProt P50552): the log2 fold change is inactive: 0.004.
On to UCK1 (UniProt Q9HA47), for which the log2 fold change was inactive: -0.005.
On the same count and under the same terms, the result for USE1 (UniProt Q9NZ43) reads inactive: 0; that for UBE3C (UniProt Q15386), inactive: -0.002.
Still for that read-out and setting: the value for UBE4B isoform 4 (UniProt O95155) was inactive: 0.055; that for UBR7 (UniProt Q8N806) was inactive: 0.008.
Same read-out and setting: the result for UBQLN2 (UniProt Q9UHD9) reads inactive: 0.037.
With UHRF1BP1 (UniProt Q6BDS2), the log2 fold change is inactive: 0.008.
Regarding UTP3 (UniProt Q9NQZ2), the log2 fold change was inactive: 0.
On to USP30 (UniProt Q70CQ3), for which the log2 fold change was inactive: 0.112.
With UFM1 (UniProt P61960), the log2 fold change was inactive: -0.002.
Turning to USP7 (UniProt Q93009), the log2 fold change was inactive: 0.004.
On the same count and under the same terms, the result for UGGT1 (UniProt Q9NYU2) reads inactive: 0.014.
As to VAPA isoform 2 (UniProt Q9P0L0), the log2 fold change was inactive: 0.023.
Still for that read-out and setting: the result for VARS2, A0A0G2JL52 reads inactive: -0.006.
Still for that read-out and setting: the result for USP24 (UniProt Q9UPU5) reads inactive: 0.148.

Compound in a further assay: C1=CC=C(C=C1)C2=NC(=C(N2)C3=CC=NC=C3)C4=CC(=C(C=C4)Cl)O
The description is as above. The procedure, abridged: as §1
As to VANGL1 (UniProt Q8TAA9), the log2 fold change is inactive: -0.006.
Turning to URGCP (UniProt Q8TCY9), the log2 fold change was inactive: 0.068.
As for VAT1 (UniProt Q99536), the log2 fold change was inactive: 0.064.
Still for that read-out and setting: the value for UBL7 (UniProt Q96S82) was inactive: -0.015.
For the target USP10 isoform 2 (UniProt Q14694), the log2 fold change was inactive: -0.004.
In the case of UBXN7 (UniProt O94888), the log2 fold change was inactive: -0.021.
Turning to USP19 isoform 6 (UniProt O94966), the log2 fold change is inactive: -0.038.
Same read-out and setting: the result for UBL5 (UniProt Q9BZL1) reads inactive: -0.072; that for UQCRH (UniProt P07919), inactive: -0.048.
Turning to UROS (UniProt P10746), the log2 fold change was inactive: -0.038.
The same measure, in the same setting: the result for UBR5 (UniProt O95071) reads inactive: -0.041.
Regarding UBE3D (UniProt Q7Z6J8), the log2 fold change is inactive: 0.013.
Consider UFL1 (UniProt O94874), for which the log2 fold change was inactive: 0.069.
Same read-out and setting: the result for UTP14A (UniProt Q9BVJ6) reads inactive: -0.06; that for UBQLN1 (UniProt Q9UMX0), inactive: 0.02; that for UQCRQ (UniProt O14949), inactive: 0.003.
Still for that read-out and setting: the value for UFD1 isoform 1 (UniProt Q92890) was inactive: -0.01; that for UNC45A (UniProt Q9H3U1) was inactive: 0.007.
For UQCR10 (UniProt Q9UDW1), the log2 fold change was inactive: 0.046.
UBXN1 (UniProt Q04323): the log2 fold change is inactive: -0.028.
For VARS (UniProt P26640), the log2 fold change is inactive: 0.049.
On the same count and under the same terms, the value for UQCRB (UniProt P14927) was inactive: -0.014; that for USP47 (UniProt Q96K76) was inactive: -0.015; that for VASP (UniProt P50552) was inactive: -0.021.
With UCK1 (UniProt Q9HA47), the log2 fold change was inactive: 0.053.
For the target USE1 (UniProt Q9NZ43), the log2 fold change was inactive: 0.037.
As for UBE3C (UniProt Q15386), the log2 fold change is inactive: 0.018.
In the case of UBE4B isoform 4 (UniProt O95155), the log2 fold change is inactive: 0.026.
Same read-out and setting: the result for UBR7 (UniProt Q8N806) reads inactive: -0.09.
Same read-out and setting: the value for UBQLN2 (UniProt Q9UHD9) was inactive: 0.034.
Turning to UHRF1BP1 (UniProt Q6BDS2), the log2 fold change is inactive: -0.017.
Consider UTP3 (UniProt Q9NQZ2), for which the log2 fold change is inactive: -0.255.
Regarding USP30 (UniProt Q70CQ3), the log2 fold change is inactive: -0.069.
Same read-out and setting: the value for UFM1 (UniProt P61960) was inactive: 0.12; that for USP7 (UniProt Q93009) was inactive: 0.068.
On the same count and under the same terms, the value for UGGT1 (UniProt Q9NYU2) was inactive: -0.012; that for VAPA isoform 2 (UniProt Q9P0L0) was inactive: -0.014; that for VARS2, A0A0G2JL52 was inactive: 0.026.
The same measure, in the same setting: the result for USP24 (UniProt Q9UPU5) reads inactive: 0.141.
